Assay results reported in publication doi:10.1101/305508.
No constants are given. Whether binding was seen depends on the method and setting. Binding seen in cells or lysates may run through a third protein.

Sequences of proteins named here, by UniProt entry; tags and fusion partners are left off.
UniProt Q61545: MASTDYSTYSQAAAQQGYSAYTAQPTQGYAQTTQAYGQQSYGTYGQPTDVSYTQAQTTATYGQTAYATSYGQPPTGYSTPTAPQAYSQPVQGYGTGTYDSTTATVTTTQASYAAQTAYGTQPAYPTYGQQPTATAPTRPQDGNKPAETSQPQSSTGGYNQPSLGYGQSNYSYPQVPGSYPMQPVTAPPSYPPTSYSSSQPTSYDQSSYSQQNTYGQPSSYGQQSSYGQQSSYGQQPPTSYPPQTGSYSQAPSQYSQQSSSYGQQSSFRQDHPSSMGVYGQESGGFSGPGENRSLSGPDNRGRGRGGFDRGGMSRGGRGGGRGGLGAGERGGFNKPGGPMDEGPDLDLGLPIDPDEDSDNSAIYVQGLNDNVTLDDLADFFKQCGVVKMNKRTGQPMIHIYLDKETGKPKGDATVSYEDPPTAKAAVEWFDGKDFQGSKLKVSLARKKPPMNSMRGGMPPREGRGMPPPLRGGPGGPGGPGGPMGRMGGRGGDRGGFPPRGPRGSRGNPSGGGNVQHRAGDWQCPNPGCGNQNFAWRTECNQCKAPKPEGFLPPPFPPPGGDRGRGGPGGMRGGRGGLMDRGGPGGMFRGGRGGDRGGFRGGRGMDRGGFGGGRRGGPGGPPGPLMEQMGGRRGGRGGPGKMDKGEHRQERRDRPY
UniProt Q9CWW7: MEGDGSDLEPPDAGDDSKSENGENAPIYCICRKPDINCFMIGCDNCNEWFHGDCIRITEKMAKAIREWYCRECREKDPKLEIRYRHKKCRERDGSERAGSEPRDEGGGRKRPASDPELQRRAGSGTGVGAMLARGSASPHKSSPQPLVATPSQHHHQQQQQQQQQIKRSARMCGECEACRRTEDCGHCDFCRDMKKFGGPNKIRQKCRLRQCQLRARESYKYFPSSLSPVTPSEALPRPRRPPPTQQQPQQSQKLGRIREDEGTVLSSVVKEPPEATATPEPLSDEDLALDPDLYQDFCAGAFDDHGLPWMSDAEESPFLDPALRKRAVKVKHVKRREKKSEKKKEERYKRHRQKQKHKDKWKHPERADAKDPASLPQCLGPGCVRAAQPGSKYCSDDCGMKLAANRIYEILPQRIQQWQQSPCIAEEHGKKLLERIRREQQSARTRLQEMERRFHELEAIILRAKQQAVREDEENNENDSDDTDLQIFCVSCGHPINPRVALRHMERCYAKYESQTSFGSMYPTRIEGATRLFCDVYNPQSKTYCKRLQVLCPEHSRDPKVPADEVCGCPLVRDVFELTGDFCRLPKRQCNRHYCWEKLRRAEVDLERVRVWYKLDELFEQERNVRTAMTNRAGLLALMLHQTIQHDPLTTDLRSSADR

Legend:
[1] = molecular target: EWSR1 (mouse (endogenous in 14 dpp B6 testis)) (UniProt Q61545); assay: co-IP
HA-tagged EWSR1 = HA-tagged EWSR1 (UniProt Q61545); assay: co-IP

binding [1]	binding (HA-tagged EWSR1)	Substance
no binding	–	CxxC finger protein 1 (from UniProt Q9CWW7 1-660)
–	no binding	Myc-tagged mouse CXXC1 (from UniProt Q9CWW7 1-660)
